Experimental data published in patent publication US9216204B2, “Bone targeted therapeutics and methods of making and using the same” (MBC Pharma, Inc., priority 1998, dated 2015).

Assay: Binding of bisphosphonate conjugates on hydroxyapatite powder (UV absorbency of supernatant)
Procedure: A. To estimate the binding of BC on hydroxyapatite (mineral component of a bone) UV spectra of BC in buffer pH 7 were recorded before and after treatment with hydroxyapatite. To this end 10 μl of hydroxyapatite suspension in water was added to 1 ml of ˜10^−4 M solution of a BC in 0.1M Tris-HCl buffer, pH 7.0, 0.15 M NaCl and the mixture was intensively shaken for 10 minutes, and centrifuged for 5 minutes at 10,000 rpm in a microcentrifuge. The supernatant was separated and an absorbency spectrum of the supernatant was recorded.

Compound: O=c1[nH]c(=O)n(COCCOP(=O)(O)OP(=O)(O)CP(=O)(O)O)cc1F [II, Anhydride of 1-(2′-hydroxyethoxymethyl)-5-fluorouracil-2′-phosphate and methylenediphosphonic acid]
- Peak absorbency after hydroxyapatite addition (supernatant after 10 min shaking with hydroxyapatite, pH 7.0): 0.085
- Peak absorbency before hydroxyapatite addition (~10^-4 M in 0.1M Tris-HCl buffer, pH 7.0, 0.15 M NaCl): 0.667
